These results are taken from article PMC7819943, “Rice protein-binding microarrays: a tool to detect cis-acting elements near promoter regions in rice”.

Amino acid sequences for entries named in this document (tags omitted).
UniProt Q0JBA9, entry or part of it: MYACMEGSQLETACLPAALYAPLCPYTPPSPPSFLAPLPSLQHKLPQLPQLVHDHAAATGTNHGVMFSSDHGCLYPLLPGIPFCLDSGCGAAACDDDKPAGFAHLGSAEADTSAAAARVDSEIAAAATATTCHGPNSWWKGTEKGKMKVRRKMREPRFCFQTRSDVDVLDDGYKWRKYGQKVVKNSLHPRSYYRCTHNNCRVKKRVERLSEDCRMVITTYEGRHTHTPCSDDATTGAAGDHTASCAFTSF

The list shows a part of the results.

This assay has as its target OsWRKY34 (Oryza sativa, UniProt Q0JBA9 1-250). As to the kind of experiment: protein-binding microarray (RPBM); PBS, 2% BSA, 51.3 ng/ul salmon testes DNA, 50 uM zinc acetate, 200 nM TF, 25 C, 1 h; high values mean tight binding. To be noted: protein: recombinant; tags: N-terminal polyhistidine and DsRed monomer fusion (pET32a); label: CyDye5-dUTP incorporated in the synthesized complementary strand; 3' TTTTT single-stranded linker to array surface; dsDNA, one strand shown. The method in brief: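 Using Ni–NTA, transcription factors fused N-terminally to polyhistidine and DsRed were purified after expression in E. coli BL21-CodonPlus. These were incubated at 200 nM with a blocked, double-stranded custom Agilent array for 1 h at 25 °C in a buffer containing 50 µM zinc acetate, and the array was washed. The binding signal is per-feature fluorescence intensity (arbitrary units) on an Axon 4000B scanner.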
Take “CCCCGTTTTATTATTGCCGAATCCATGTTTCGACATAAACCGGAGTCACCTAGTGCAG”: the binding signal is 9950 fluorescence intensity (a.u.).
On to “CTTTTTTTTCTAAACTCTCATCTCACTTCGTCAGTTCGTCCGGAGTCACCTAGTGCAG”, for which the binding signal was 8740 fluorescence intensity (a.u.).
Then “ACTCTCTCCATCCCATTTTGAGTGCAACCATGAGTTTCCGCGGAGTCACCTAGTGCAG”, with 8640 fluorescence intensity (a.u.); and “CAGCAGTACCTTGTTATGCCTATATACGTTCTAAAGTATACGGAGTCACCTAGTGCAG”, with 8460 fluorescence intensity (a.u.).
Take “ACCATTCTCATGTAGACGTTCTCTTTTCTTTTGCTAGTCACGGAGTCACCTAGTGCAG”: the binding signal was 9600 fluorescence intensity (a.u.).
For “CACTTGTTTTCACTATGTCCACACGACTTTTTTCTTTAGACGGAGTCACCTAGTGCAG”, the binding signal is 9210 fluorescence intensity (a.u.).
As to “AGAGCTGCTAATTTTTTTCTTTCCTTTTGTGTTGTTTCCCCGGAGTCACCTAGTGCAG”, the binding signal is 8540 fluorescence intensity (a.u.).
Regarding “ACTGTTCAGGATGATCATCCCTTATGCTGCTTCTGTTGGTCGGAGTCACCTAGTGCAG”, the binding signal was 9340 fluorescence intensity (a.u.).
As for “CTCCTCGCGCCCTCGCTGCGTCGCCGCCGTTGCCCGCCCTCGGAGTCACCTAGTGCAG”, the figure is 9960 fluorescence intensity (a.u.); as for “CTTCGCGCTGGTCTTCTCCACCGCCGCCGCTATCACTGGACGGAGTCACCTAGTGCAG”, 8420 fluorescence intensity (a.u.).
Then “TGGCACTGTAGTCCTTCCTCAGCTCCACATACCACCATCTCGGAGTCACCTAGTGCAG”, with 10500 fluorescence intensity (a.u.); and “CCTGACATTCCATTGTGTTTCTTACGTATAACCCCTCGTACGGAGTCACCTAGTGCAG”, with 10200 fluorescence intensity (a.u.); and “GGTGGTTGGTAGCTCGGCGGCGGCGGGATCTTCTTCTTGCCGGAGTCACCTAGTGCAG”, with 11300 fluorescence intensity (a.u.).
Then “CTAGAAGACACAGAAGCCCATCTTGCCATCCATAGTCATCCGGAGTCACCTAGTGCAG”, with 8080 fluorescence intensity (a.u.).
As for “GTGATCCCTTTCTTCTCATGGGCTCATACCATCAATCACACGGAGTCACCTAGTGCAG”, the binding signal is 8040 fluorescence intensity (a.u.).
As for “CCTATATACCCACCTCTCTCATCTTTCAATGTTTATTGACCGGAGTCACCTAGTGCAG”, the binding signal is 9420 fluorescence intensity (a.u.).
As to “TCTTTCATTTCTCGTGGGAAGAGCTCTTTTTTCTTTCATTCGGAGTCACCTAGTGCAG”, the binding signal is 8280 fluorescence intensity (a.u.).
As for “GGTGATCACTAGGCTGTCAATGGGGTGGTAGGGTGGCATGCGGAGTCACCTAGTGCAG”, the figure is 10400 fluorescence intensity (a.u.).
Then “ATTGCGCGTGGCGGAGGGGAAGAGGGAGGGGAGGGTGGCGCGGAGTCACCTAGTGCAG”, with 16100 fluorescence intensity (a.u.).
As for “CTCTACTATCGATCTTTTTTCCACGTCGGTCGCGGCTTTTCGGAGTCACCTAGTGCAG”, the binding signal was 9580 fluorescence intensity (a.u.).
As for “GTACTTCTTCGCTCCGTCGTTCATAATATTCGTTTTTTCACGGAGTCACCTAGTGCAG”, the figure is 10100 fluorescence intensity (a.u.); as for “CCGCTGCCTGCTTTTGGATATGGTCTCTATCATCCACTTCCGGAGTCACCTAGTGCAG”, 11000 fluorescence intensity (a.u.).
As for “GCCTTACATTTCCTTTCTTTCGTCTGCAATTTTTGGGACTCGGAGTCACCTAGTGCAG”, the figure is 11900 fluorescence intensity (a.u.); as for “CTCCCTGCGTGTGGTTCAGGTGCTGAAGGTGATATTCAGACGGAGTCACCTAGTGCAG”, 9190 fluorescence intensity (a.u.).
Consider “AAAGCCTCCGCATTGACTCCTCGGCCCCTATTGCGTCACTCGGAGTCACCTAGTGCAG”, for which the binding signal was 8400 fluorescence intensity (a.u.).
Regarding “CATTTACATTTGATCTGTTCCATCATTGACAACTGCTAATCGGAGTCACCTAGTGCAG”, the binding signal was 8030 fluorescence intensity (a.u.).
Take “GTTGGCATGTATCCACATGTTGGTCACTGCTACGAGCATTCGGAGTCACCTAGTGCAG”: the binding signal is 8770 fluorescence intensity (a.u.).
As for “TTCAGTTTTTGCTTGCAACGTTTGACCACTCGTCTTATTCCGGAGTCACCTAGTGCAG”, the figure is 15600 fluorescence intensity (a.u.); as for “TATCTGTGTCTGTGTGTGCACTGTGGCACGCGTGCACGCACGGAGTCACCTAGTGCAG”, 8090 fluorescence intensity (a.u.); as for “ATTTTCTTGGGGTCGTTTATAAATTAAATTTTAGGCTTGGCGGAGTCACCTAGTGCAG”, 8460 fluorescence intensity (a.u.).
Regarding “CTCACTTCACTCCACTCCACTCCACCGTTTCCCCGTTTCCCGGAGTCACCTAGTGCAG”, the binding signal was 9440 fluorescence intensity (a.u.).
Then “TCCTACGTCTCCGCCCATGTCCTGCTCTACGGGCTGACGACGGAGTCACCTAGTGCAG”, with 8240 fluorescence intensity (a.u.); and “TTTCTCACTGTTATATTGTCTAATATCATCTTTCTCTTTTCGGAGTCACCTAGTGCAG”, with 9880 fluorescence intensity (a.u.).
As for “TGTTTTTTCCTTTTTTTTTCTTTTCTTTTTCTCTCTTCCCCGGAGTCACCTAGTGCAG”, the figure is 8200 fluorescence intensity (a.u.); as for “ATCCCACACATAGCAACCACTATCTATTTATTTTACTACCCGGAGTCACCTAGTGCAG”, 9040 fluorescence intensity (a.u.); as for “TATTATCCAAAGTACTTTAAACGCAACTTTTCATTTTTTACGGAGTCACCTAGTGCAG”, 8790 fluorescence intensity (a.u.).
On to “CTTGTTTTCAATGTTTTCATAGTTTGATCCGCACTGTATTCGGAGTCACCTAGTGCAG”, for which the binding signal was 11000 fluorescence intensity (a.u.).
Consider “TGAAATTGGGTATCCTAGCTGCATCAAACACTCTCATCTACGGAGTCACCTAGTGCAG”, for which the binding signal was 10200 fluorescence intensity (a.u.).
Consider “GTTACATTTTTAGTCCTCATCCCTTGTTTGGTTTCACATCCGGAGTCACCTAGTGCAG”, for which the binding signal is 11400 fluorescence intensity (a.u.).
With “GCATTGAGGTCGACATGGACATACCTTTCCTTTGGGTTGCCGGAGTCACCTAGTGCAG”, the binding signal was 8490 fluorescence intensity (a.u.).
Then “CACGCCAACCTCGCATCTCTCTCTCACCTCTGCTCCAATCCGGAGTCACCTAGTGCAG”, with 8900 fluorescence intensity (a.u.); and “ACCTCTCTCATTCGTTTTCCACGTACACGCTTTTTAAATTCGGAGTCACCTAGTGCAG”, with 10200 fluorescence intensity (a.u.).
